Laboratory results: article PMC11148069
Results are given in words; binding and its absence hold for the method and conditions named. Binding seen in cells or lysates may run through a third protein. Binding calls can cover weak binding; strength is not graded here.

Biological target: T1, Xenopus Nup93, endogenous (Xenopus (endogenous in egg extract)) (UniProt Q7ZX96)
T1 sequence: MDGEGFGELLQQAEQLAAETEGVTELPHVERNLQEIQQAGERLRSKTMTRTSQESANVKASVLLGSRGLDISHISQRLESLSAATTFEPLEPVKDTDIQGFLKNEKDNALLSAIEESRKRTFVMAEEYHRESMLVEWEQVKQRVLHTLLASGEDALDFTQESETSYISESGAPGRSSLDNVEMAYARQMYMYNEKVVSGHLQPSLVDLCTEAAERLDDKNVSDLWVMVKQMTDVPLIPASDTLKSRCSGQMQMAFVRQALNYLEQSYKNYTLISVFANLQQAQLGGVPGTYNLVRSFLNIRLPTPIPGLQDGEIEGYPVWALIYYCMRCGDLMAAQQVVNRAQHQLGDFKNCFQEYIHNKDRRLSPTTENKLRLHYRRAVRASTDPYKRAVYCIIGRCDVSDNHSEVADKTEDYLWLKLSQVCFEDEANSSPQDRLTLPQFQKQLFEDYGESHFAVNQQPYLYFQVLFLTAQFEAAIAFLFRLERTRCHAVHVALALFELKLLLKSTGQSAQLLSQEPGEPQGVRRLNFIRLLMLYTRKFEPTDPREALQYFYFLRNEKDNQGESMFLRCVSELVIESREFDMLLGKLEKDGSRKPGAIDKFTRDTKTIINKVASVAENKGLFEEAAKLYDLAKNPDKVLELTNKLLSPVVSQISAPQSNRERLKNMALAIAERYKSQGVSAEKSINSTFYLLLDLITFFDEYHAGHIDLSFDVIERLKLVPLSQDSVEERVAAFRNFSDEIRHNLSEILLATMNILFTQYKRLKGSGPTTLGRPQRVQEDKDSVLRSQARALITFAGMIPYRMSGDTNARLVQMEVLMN
Assay: pull-down; proteins co-purifying with the Nup that was captured by the immobilised nanobody from HeLa lysate or Xenopus egg extract; SDS-PAGE/Coomassie, identities confirmed by mass spectrometry

binding	Substance
binds	Xenopus Nup188, endogenous
binds	Xenopus Nup205, endogenous
